# Source: PMC3923796
# The chains behind the UniProt entries cited, without tags or fusion partners. Residues count along the entry.
# UniProt P29317, residues 24-976: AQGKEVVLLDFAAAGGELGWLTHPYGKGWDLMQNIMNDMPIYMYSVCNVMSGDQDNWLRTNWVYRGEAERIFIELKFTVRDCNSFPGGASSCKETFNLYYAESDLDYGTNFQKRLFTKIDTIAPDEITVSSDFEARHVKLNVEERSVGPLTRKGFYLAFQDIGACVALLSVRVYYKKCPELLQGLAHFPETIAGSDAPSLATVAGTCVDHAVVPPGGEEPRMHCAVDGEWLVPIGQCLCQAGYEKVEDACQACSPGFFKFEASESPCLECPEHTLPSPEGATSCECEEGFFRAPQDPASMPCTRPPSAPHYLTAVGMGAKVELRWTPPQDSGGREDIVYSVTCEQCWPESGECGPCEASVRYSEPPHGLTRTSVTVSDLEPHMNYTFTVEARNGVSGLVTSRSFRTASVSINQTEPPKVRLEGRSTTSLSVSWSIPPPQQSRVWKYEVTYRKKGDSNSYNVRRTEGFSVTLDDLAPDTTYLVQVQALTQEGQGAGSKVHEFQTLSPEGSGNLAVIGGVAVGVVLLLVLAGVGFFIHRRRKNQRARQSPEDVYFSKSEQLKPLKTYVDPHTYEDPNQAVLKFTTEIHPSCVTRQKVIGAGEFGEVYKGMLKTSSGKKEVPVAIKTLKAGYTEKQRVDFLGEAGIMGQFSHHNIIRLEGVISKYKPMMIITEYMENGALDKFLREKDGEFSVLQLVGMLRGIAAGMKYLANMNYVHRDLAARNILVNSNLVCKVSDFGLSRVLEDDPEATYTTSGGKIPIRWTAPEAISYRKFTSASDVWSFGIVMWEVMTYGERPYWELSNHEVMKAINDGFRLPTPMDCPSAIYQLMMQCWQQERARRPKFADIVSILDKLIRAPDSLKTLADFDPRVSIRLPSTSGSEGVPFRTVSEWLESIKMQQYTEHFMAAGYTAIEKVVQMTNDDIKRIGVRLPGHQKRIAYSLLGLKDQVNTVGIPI
# UniProt P60660: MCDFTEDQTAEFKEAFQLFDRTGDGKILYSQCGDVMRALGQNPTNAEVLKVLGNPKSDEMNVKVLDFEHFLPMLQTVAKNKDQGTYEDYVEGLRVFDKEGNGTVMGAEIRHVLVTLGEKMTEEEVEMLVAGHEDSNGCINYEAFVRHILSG
# UniProt P07355: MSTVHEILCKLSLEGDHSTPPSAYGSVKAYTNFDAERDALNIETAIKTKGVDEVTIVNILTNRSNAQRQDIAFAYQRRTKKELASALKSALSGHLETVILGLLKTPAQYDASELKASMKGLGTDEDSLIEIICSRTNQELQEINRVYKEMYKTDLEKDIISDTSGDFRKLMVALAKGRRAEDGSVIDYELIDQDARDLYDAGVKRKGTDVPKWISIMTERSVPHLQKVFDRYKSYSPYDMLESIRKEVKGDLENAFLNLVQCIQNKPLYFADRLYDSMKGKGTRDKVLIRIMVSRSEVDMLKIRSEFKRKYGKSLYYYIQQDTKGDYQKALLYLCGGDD
# UniProt P35579: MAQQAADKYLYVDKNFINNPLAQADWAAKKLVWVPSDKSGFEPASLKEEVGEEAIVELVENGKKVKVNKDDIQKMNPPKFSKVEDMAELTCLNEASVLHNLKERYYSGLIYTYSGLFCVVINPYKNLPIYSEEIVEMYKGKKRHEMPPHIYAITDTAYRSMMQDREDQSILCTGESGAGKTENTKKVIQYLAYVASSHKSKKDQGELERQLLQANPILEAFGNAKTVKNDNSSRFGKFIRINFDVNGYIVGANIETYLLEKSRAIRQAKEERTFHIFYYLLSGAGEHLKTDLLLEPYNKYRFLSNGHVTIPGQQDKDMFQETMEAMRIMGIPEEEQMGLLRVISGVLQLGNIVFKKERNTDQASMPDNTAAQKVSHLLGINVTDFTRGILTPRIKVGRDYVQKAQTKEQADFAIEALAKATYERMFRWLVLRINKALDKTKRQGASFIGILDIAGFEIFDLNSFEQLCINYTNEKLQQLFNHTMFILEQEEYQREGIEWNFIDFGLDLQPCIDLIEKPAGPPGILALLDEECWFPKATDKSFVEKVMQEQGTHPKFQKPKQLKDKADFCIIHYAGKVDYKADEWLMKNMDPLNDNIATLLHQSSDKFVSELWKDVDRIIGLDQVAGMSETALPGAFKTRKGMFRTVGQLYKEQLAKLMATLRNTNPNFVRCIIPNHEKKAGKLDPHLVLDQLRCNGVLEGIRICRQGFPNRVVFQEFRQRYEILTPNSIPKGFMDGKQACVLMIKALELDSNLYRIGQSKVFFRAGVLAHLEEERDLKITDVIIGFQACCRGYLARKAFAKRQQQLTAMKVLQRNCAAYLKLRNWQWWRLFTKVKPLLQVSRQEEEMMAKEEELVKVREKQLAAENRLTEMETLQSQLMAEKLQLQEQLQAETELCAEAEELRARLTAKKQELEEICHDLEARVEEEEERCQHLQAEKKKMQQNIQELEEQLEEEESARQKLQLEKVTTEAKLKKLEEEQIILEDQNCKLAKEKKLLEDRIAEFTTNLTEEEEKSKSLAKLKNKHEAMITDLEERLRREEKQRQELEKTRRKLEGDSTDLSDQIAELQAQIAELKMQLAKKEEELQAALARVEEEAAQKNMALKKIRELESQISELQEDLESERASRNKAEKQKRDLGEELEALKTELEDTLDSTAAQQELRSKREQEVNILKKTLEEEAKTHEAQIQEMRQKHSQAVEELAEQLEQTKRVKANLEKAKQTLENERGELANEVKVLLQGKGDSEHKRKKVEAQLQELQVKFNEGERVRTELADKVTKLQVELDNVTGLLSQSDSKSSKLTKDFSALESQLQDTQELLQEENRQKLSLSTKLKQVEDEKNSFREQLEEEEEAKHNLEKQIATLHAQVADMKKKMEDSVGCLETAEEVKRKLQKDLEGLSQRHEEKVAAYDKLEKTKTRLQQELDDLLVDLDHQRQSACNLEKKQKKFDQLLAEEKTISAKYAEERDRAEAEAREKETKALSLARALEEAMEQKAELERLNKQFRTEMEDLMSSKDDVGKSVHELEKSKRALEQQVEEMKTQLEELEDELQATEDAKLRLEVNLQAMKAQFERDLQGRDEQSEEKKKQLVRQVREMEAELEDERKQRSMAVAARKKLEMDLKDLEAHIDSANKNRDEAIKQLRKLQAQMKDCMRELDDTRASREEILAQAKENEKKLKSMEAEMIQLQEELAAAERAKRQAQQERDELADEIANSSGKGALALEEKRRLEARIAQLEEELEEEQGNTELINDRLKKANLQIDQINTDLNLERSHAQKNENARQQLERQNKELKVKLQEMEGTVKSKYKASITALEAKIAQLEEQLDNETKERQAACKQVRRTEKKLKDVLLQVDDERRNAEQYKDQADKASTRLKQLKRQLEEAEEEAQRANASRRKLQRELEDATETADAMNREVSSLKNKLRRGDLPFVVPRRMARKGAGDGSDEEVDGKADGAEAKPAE
# UniProt P08670: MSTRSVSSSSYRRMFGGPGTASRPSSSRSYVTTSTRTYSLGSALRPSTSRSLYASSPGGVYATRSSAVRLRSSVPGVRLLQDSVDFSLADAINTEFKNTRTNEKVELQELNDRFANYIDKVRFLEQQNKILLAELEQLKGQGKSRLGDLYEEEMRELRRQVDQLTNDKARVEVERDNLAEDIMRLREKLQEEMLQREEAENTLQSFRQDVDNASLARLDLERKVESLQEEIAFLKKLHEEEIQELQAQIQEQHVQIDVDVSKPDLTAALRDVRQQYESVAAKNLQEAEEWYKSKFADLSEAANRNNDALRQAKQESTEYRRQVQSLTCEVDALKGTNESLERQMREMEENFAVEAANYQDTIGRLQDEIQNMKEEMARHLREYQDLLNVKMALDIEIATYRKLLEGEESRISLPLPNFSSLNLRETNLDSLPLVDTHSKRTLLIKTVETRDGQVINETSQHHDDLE
# UniProt P11021, residues 19-654: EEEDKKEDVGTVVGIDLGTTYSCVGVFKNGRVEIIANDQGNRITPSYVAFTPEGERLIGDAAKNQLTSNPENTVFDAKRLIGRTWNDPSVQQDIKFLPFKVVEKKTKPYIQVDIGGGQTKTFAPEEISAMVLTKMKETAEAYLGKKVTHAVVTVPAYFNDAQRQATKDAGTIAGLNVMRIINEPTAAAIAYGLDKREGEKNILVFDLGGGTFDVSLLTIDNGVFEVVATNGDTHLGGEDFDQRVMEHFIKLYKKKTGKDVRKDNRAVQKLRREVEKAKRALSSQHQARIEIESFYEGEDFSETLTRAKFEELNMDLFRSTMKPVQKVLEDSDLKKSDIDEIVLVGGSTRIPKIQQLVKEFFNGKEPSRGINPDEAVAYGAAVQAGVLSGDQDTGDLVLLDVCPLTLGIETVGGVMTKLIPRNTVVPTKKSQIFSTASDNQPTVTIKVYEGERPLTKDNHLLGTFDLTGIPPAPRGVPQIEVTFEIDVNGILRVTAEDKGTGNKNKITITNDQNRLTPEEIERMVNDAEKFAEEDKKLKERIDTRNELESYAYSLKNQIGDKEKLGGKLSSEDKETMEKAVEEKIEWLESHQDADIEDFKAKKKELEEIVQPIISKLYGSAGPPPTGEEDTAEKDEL
# UniProt P15311: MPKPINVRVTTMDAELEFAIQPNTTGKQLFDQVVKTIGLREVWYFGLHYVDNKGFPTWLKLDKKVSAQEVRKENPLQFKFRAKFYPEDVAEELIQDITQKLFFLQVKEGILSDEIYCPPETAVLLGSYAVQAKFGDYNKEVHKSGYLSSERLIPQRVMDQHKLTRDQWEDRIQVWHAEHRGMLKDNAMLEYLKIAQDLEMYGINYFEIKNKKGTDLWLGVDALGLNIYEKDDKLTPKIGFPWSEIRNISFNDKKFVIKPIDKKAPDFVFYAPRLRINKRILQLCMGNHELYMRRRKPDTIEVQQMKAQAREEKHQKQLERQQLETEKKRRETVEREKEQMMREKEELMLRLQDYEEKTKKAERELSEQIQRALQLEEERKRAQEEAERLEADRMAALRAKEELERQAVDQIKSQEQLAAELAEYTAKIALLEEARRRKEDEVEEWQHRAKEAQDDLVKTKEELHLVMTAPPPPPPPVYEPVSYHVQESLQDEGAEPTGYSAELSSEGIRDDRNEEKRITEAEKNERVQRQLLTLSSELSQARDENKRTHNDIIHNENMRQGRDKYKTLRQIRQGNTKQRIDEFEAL
# UniProt P26038: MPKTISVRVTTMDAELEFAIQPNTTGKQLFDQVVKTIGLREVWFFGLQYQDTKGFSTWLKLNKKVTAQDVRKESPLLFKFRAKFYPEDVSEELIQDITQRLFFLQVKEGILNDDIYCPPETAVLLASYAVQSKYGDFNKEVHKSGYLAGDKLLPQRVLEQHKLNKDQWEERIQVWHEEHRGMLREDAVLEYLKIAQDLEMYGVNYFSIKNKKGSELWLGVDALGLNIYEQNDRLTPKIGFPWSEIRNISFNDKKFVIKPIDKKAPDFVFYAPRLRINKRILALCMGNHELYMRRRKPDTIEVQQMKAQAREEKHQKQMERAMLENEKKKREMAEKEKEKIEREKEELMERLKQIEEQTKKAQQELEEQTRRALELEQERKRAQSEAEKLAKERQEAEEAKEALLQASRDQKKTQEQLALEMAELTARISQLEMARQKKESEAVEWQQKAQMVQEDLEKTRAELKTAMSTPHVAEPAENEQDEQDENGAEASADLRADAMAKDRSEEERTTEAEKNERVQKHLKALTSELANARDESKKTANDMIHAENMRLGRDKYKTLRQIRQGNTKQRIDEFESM
# UniProt O43707: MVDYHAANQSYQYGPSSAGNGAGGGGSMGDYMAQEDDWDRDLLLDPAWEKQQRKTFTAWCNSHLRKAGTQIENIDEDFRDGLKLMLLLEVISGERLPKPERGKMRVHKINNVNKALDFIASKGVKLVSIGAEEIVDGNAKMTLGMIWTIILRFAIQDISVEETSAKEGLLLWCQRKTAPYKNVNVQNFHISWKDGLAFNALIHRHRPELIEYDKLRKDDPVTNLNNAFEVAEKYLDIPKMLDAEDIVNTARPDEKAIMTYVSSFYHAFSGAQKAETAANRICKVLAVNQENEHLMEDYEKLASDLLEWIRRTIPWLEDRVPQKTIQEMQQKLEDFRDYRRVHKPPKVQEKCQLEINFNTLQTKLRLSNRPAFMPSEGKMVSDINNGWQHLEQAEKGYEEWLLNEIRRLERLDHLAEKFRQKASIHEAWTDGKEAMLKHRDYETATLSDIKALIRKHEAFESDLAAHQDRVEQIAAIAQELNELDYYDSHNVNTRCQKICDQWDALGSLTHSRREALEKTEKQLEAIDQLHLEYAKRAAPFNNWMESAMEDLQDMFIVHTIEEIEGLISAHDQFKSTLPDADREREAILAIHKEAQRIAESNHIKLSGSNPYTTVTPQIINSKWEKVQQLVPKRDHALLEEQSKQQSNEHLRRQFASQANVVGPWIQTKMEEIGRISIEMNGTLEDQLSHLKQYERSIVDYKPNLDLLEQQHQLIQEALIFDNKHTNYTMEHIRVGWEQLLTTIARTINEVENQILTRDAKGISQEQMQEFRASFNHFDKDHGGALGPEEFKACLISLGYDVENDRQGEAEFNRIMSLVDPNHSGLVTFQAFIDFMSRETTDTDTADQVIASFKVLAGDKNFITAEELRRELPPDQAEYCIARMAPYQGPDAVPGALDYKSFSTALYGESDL
# Results are given in words; binding and its absence hold for the method and conditions named. In cells and extracts the contact can be indirect. A yes stands for co-enrichment or nearness to the bait. Other partners may have been found.
# T1: calcium and integrin binding protein-1 (CIB1) (human (endogenous in HMVEC-d)) (UniProt Q99828)
# T1 sequence: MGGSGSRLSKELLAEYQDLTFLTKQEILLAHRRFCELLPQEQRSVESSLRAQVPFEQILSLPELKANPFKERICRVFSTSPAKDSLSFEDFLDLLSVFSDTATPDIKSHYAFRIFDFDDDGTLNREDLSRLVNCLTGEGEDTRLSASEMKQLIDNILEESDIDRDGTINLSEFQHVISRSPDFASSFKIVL
# B1: Peroxiredoxin I (protein, UniProt Q06830 1-199)
# chain: MSSGNAKIGHPAPNFKATAVMPDGQFKDISLSDYKGKYVVFFFYPLDFTFVCPTEIIAFSDRAEEFKKLNCQVIGASVDSHFCHLAWVNTPKKQGGLGPMNIPLVSDPKRTIAQDYGVLKADEGISFRGLFIIDDKGILRQITVNDLPVGRSVDETLRLVQAFQFTDKHGEVCPAGWKPGSDTIKPDVQKSKEYFSKQK
# Molecular target: EphrinA2 (EphA2) (human (endogenous in HMVEC-d)) (UniProt P29317)
# Experiment: affinity purification with mass spectrometry; 200 µg lysate of HMVEC-d cells infected with KSHV for 10 min (or mock), immunoprecipitated overnight at 4°C with mouse anti-CIB1 or rabbit anti-EphA2; 4-20% SDS-PAGE, Coomassie bands analysed by LC-ESI-MS
row,Molecule,binding
1,Myosin L6 (from UniProt P60660 1-151),binds
2,annexin A2 (from UniProt P07355 1-339),binds
3,myosin IIA (from UniProt P35579 1-1960),binds
4,vimentin (from UniProt P08670 1-466),binds

# Molecular target: T1, calcium and integrin binding protein-1 (CIB1) (human (endogenous in HMVEC-d))
# Experiment: as above
row,Molecule,binding
1,Bip (from UniProt P11021 19-654),binds
2,Ezrin (from UniProt P15311 1-586),binds
3,Hsp70 (human (endogenous in HMVEC-d)),binds
4,Moesin (from UniProt P26038 1-577),binds
5,Myosin L6 (from UniProt P60660 1-151),binds
6,Radixin (from UniProt P35241 1-583),binds
7,alpha-actinin 4 (from UniProt O43707 1-911),binds
8,annexin A2 (from UniProt P07355 1-339),binds
9,myosin IIA (from UniProt P35579 1-1960),binds
10,vimentin (from UniProt P08670 1-466),binds
11,B1,binds
